No constants are given. Whether binding was seen depends on the method and setting.

Assay [1] addresses CagA-2CM^W (Helicobacter pylori strain 26695) (UniProt P55980). The experiment in a line: SEC; Superdex 200 10/300 GL, HBS-P running buffer, 4 °C, 0.5 ml/min; CagA constructs alone or mixed with PAR1b (39–364) at a molar ratio of 1:1 or 1:2; fractions on SDS-PAGE, CBB bands quantified; both purified.
The target of assay [2] is CagA-C1164S (Helicobacter pylori strain 26695) (UniProt P55980). The experiment in a line: AUC; sedimentation velocity, 20 °C, 10 mM HEPES pH 7.7, 150 mM NaCl, 1 mM EDTA; 5.5 μM CagA-CS, 11 μM PAR1b (39–364), alone or mixed; c(s) by SEDFIT; both purified.

CagA-2CM^W (from UniProt P55980 1-1186): the binding entry in assay [1] is on record as “no binding”.

Consider “CagA-C1164S (from UniProt P55980 1-1186)”, for which, in assay [2], the binding entry is “no binding (tested: 5.5 μM)”.

The values above are taken from article PMC4957108.
